Measured values: ChEMBL document CHEMBL4316593 (Eur J Med Chem, 2019)
The source gives many values for each of these; only a part stands here.

Assays:
Assay type in all cases: cell-based
Conditions in all cases: U-87MG ATCC
[1] = Inhibition of RTK/PI3K/AKT/mTOR signaling in human U87 cells assessed as up regulation of poly(A) RNA polymerase D7, non-canonical gene expression at cytotoxic IC50 measured after 48 hrs relative to control
[2] = Inhibition of RTK/PI3K/AKT/mTOR signaling in human U87 cells assessed as up regulation of SLC25A3 gene expression at cytotoxic IC50 measured after 48 hrs relative to control
[3] = Inhibition of RTK/PI3K/AKT/mTOR signaling in human U87 cells assessed as up regulation of round spermatid basic protein 1 gene expression at cytotoxic IC50 measured after 48 hrs relative to control
[4] = Inhibition of RTK/PI3K/AKT/mTOR signaling in human U87 cells assessed as down regulation of NUP214 gene expression at cytotoxic IC50 measured after 48 hrs relative to control
[5] = Inhibition of RTK/PI3K/AKT/mTOR signaling in human U87 cells assessed as down regulation of RALGAPB gene expression at cytotoxic IC50 measured after 48 hrs relative to control
[6] = Inhibition of RTK/PI3K/AKT/mTOR signaling in human U87 cells assessed as down regulation of ZFP36 gene expression at cytotoxic IC50 measured after 48 hrs relative to control
[7] = Inhibition of RTK/PI3K/AKT/mTOR signaling in human U87 cells assessed as up regulation of phosphatidylinositol-4,5-bisphosphate 3-kinase catalytic subunit delta gene expression at cytotoxic IC50 measured after 48 hrs relative to control
[8] = Inhibition of RTK/PI3K/AKT/mTOR signaling in human U87 cells assessed as up regulation of cytochrome c oxidase III gene expression at cytotoxic IC50 measured after 48 hrs relative to control
[9] = Inhibition of RTK/PI3K/AKT/mTOR signaling in human U87 cells assessed as down regulation of ZNF81 gene expression at cytotoxic IC50 measured after 48 hrs relative to control
[10] = Inhibition of RTK/PI3K/AKT/mTOR signaling in human U87 cells assessed as up regulation of retrotransposon Gag like 8A gene expression at cytotoxic IC50 measured after 48 hrs relative to control
[11] = Inhibition of RTK/PI3K/AKT/mTOR signaling in human U87 cells assessed as down regulation of ITPRIP gene expression at cytotoxic IC50 measured after 48 hrs relative to control
[12] = Inhibition of RTK/PI3K/AKT/mTOR signaling in human U87 cells assessed as down regulation of EIF1 gene expression at cytotoxic IC50 measured after 48 hrs relative to control
[13] = Inhibition of RTK/PI3K/AKT/mTOR signaling in human U87 cells assessed as up regulation of PLXNA3 gene expression at cytotoxic IC50 measured after 48 hrs relative to control
[14] = Inhibition of RTK/PI3K/AKT/mTOR signaling in human U87 cells assessed as down regulation of APLP2 gene expression at cytotoxic IC50 measured after 48 hrs relative to control
[15] = Inhibition of RTK/PI3K/AKT/mTOR signaling in human U87 cells assessed as up regulation of ubiquitin specific peptidase 28 gene expression at cytotoxic IC50 measured after 48 hrs relative to control
[16] = Inhibition of RTK/PI3K/AKT/mTOR signaling in human U87 cells assessed as up regulation of podocalyxin like gene expression at cytotoxic IC50 measured after 48 hrs relative to control
[17] = Inhibition of RTK/PI3K/AKT/mTOR signaling in human U87 cells assessed as down regulation of DNAJC24 gene expression at cytotoxic IC50 measured after 48 hrs relative to control
[18] = Inhibition of RTK/PI3K/AKT/mTOR signaling in human U87 cells assessed as down regulation of THUMPD3-AS1 gene expression at cytotoxic IC50 measured after 48 hrs relative to control
[19] = Inhibition of RTK/PI3K/AKT/mTOR signaling in human U87 cells assessed as up regulation of MYO1C gene expression at cytotoxic IC50 measured after 48 hrs relative to control
[20] = Inhibition of RTK/PI3K/AKT/mTOR signaling in human U87 cells assessed as up regulation of solute carrier family 7 member 6 gene expression at cytotoxic IC50 measured after 48 hrs relative to control
[21] = Inhibition of RTK/PI3K/AKT/mTOR signaling in human U87 cells assessed as down regulation of C3orf52 gene expression at cytotoxic IC50 measured after 48 hrs relative to control
[22] = Inhibition of RTK/PI3K/AKT/mTOR signaling in human U87 cells assessed as down regulation of EXOC8 gene expression at cytotoxic IC50 measured after 48 hrs relative to control
[23] = Inhibition of RTK/PI3K/AKT/mTOR signaling in human U87 cells assessed as up regulation of ATP binding cassette subfamily A member 1 gene expression at cytotoxic IC50 measured after 48 hrs relative to control
[24] = Inhibition of RTK/PI3K/AKT/mTOR signaling in human U87 cells assessed as up regulation of peroxiredoxin 4 gene expression at cytotoxic IC50 measured after 48 hrs relative to control
[25] = Inhibition of RTK/PI3K/AKT/mTOR signaling in human U87 cells assessed as up regulation of STEAP2 metalloreductase gene expression at cytotoxic IC50 measured after 48 hrs relative to control
[26] = Inhibition of RTK/PI3K/AKT/mTOR signaling in human U87 cells assessed as up regulation of endothelin converting enzyme 1 gene expression at cytotoxic IC50 measured after 48 hrs relative to control
[27] = Inhibition of RTK/PI3K/AKT/mTOR signaling in human U87 cells assessed as up regulation of UCA1 gene expression at cytotoxic IC50 measured after 48 hrs relative to control
[28] = Inhibition of RTK/PI3K/AKT/mTOR signaling in human U87 cells assessed as up regulation of JNK1/MAPK8-associated membrane protein gene expression at cytotoxic IC50 measured after 48 hrs relative to control
[29] = Inhibition of RTK/PI3K/AKT/mTOR signaling in human U87 cells assessed as down regulation of PPP2R5D gene expression at cytotoxic IC50 measured after 48 hrs relative to control
[30] = Inhibition of RTK/PI3K/AKT/mTOR signaling in human U87 cells assessed as up regulation of transmembrane protein 39A gene expression at cytotoxic IC50 measured after 48 hrs relative to control
[31] = Inhibition of RTK/PI3K/AKT/mTOR signaling in human U87 cells assessed as down regulation of SLC45A4 gene expression at cytotoxic IC50 measured after 48 hrs relative to control
[32] = Inhibition of RTK/PI3K/AKT/mTOR signaling in human U87 cells assessed as up regulation of RPL4 gene expression at cytotoxic IC50 measured after 48 hrs relative to control

CC(=O)C(=NNc1ccccc1C#N)C(C)=O
log2FC [1]: 0.826 | log2FC [2]: 0.486 | log2FC [3]: 0.686 | log2FC [4]: -0.573 | log2FC [5]: -0.664 | log2FC [6]: -0.729 | log2FC [7]: 1.13 | log2FC [8]: 1.02 | log2FC [9]: -1.89 | log2FC [10]: 0.718 | log2FC [11]: -1.55 | log2FC [12]: -0.321 | log2FC [13]: 0.534 | log2FC [14]: -0.639 | log2FC [15]: 1.03 | log2FC [16]: 0.779 | log2FC [17]: -0.908 | log2FC [18]: -2.45 | log2FC [19]: 0.535 | log2FC [20]: 1.02 | log2FC [21]: -1.16 | log2FC [22]: -1.04 | log2FC [23]: 1.4 | log2FC [24]: 0.721 | log2FC [25]: 0.964 | log2FC [26]: 0.876 | log2FC [27]: 2.79 | log2FC [28]: 0.869 | log2FC [29]: -0.627 | log2FC [30]: 0.739 | log2FC [31]: -0.848 | log2FC [32]: 0.322
